Our source for the IC50 values is US20250368962A1, “THREE-DIMENSIONAL HEPATIC TISSUE AND METHOD OF MANUFACTURING THE SAME” (TOPPAN HOLDINGS INC., priority 2023, published 2025).

Assay [1] concerns spheroids consisting only of human hepatocytes (PXB cells). Kind of assay: ATP assay (CellTiter Glo 3D) viability after exposure to hepatotoxicity-inducing compounds, Test Example 6 Condition 2. Type of assay: cell-based. To be noted: calculated from cell viability (ATP), hepatocyte spheroids, exposure 168 hours, no bile acids, read-out: IC50 Condition 2 (spheroid).
Assay [2] concerns three-dimensional hepatic tissue consisting only of human hepatocytes (PXB cells). As to the kind of experiment: ATP assay (CellTiter Glo 3D) viability after exposure to hepatotoxicity-inducing compounds, Test Example 6 Condition 1. Type of assay: cell-based. The following applies: Hepatocyte, calculated from cell viability (ATP), exposure 168 hours from day 8 of culture, no bile acids, read-out: IC50 Condition 1 (present tissue). As to the method:
The resulting mixture was centrifuged at room temperature at 400×g for 2 minutes, the supernatant was removed, and the cells were resuspended in an HCM (product number “CC-3198”, manufactured by Lonza) containing 10 U/mL thrombin (product number “R4648”, manufactured by Sigma-Aldrich) and 1 v/v % endothelial cell growth supplement (ECGS) (product number “1052”, manufactured by Sciencell) to a cell density of 1.95×10^4 cells/2 μL to obtain a cell suspension.
2 μL of an HCM containing 5 mg/mL fibrinogen and 1 v/v % ECGS was added to a 48-well microplate (product number “3830-048”, manufactured by AGC Techno Glass) to form a droplet. The cell suspension was added to the interior of each droplet, and the 48-well microplate was then left to stand in an incubator for 40 minutes to form a fibrin gel in which the human hepatocytes were embedded. 0.5 mL of HCM containing 1 v/v % ECGS was added to each well in which the fibrin gel had been formed, and the cells were cultured under the conditions of 37° C. and 5% CO2. After the start of the culture, the medium was changed every two days.

Each structure is given as a SMILES string.

Take `CC/C(=C(\c1ccccc1)c1ccc(OCCN(C)C)cc1)c1ccccc1` [Tamoxifen]: the figures for the IC50 in assay [1] and in assay [2] were 6.4 µM and 6.3 µM, respectively.

The term IC50 denotes the concentration that gives 50% inhibition.
